From patent publication US5698521A, “Native calcitonin mimetics” (ZymoGenetics, Inc., priority 1995, dated 1997)
Part of at least one peptide drawing is inferred or uncertain, most often the ends.

Chains of the proteins cited; added tags and fusions are not shown.
UniProt A0A3Q0D7K7, entry or part of it: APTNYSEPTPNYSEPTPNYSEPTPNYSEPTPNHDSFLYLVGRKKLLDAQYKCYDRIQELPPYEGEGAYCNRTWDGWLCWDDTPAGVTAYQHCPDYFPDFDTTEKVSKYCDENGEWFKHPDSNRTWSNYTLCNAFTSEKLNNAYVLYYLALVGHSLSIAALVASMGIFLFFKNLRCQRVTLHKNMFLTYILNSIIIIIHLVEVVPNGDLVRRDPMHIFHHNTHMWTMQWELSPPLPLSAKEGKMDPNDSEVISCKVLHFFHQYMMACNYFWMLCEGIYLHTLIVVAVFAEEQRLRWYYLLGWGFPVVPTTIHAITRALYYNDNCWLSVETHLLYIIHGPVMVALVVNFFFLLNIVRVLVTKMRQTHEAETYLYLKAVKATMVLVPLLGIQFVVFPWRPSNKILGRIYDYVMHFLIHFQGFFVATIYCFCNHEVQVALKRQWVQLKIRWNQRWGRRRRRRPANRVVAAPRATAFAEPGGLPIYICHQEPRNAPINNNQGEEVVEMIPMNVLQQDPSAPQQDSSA

Tests used:
[1] = biological target: T1, human calcitonin receptor (Homo sapiens, UniProt P30988); assay: CRE-luciferase induction in Hollex-1 cells (BHK 570 expressing human calcitonin receptor and CRE-luciferase reporter); format: cell-based; conditions: Hollex-1 clone, response to human calcitonin; range 10-25 fold
T1 construct: expressed in transfected cells; host or cells: BHK 570 clone KZ10-20-48 (CRE-luciferase), clone Hollex-1
T1 sequence (P30988 25-474): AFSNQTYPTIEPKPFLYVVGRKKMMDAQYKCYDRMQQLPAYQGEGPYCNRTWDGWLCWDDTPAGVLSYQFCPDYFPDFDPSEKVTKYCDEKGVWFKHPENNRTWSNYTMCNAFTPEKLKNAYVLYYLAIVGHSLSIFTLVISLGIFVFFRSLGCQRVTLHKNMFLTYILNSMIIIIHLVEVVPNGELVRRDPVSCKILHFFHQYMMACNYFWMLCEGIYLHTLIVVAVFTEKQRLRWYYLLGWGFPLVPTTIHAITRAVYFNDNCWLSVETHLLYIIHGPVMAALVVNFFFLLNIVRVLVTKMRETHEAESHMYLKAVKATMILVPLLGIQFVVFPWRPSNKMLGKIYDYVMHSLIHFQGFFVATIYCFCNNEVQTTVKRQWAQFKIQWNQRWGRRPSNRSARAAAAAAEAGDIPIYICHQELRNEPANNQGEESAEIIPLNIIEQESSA

[2] = system: KZ10-20-48/Zem 228 cells (calcitonin receptor negative); assay: CRE-luciferase induction in calcitonin receptor negative line KZ10-20-48/Zem 228 (specificity control); format: cell-based, baby hamster; conditions: KZ10-20-48/Zem 228, concentrations up to 1000 nM
[3] = system: osteoclasts in mouse calvariae; assay: Calvaria histology (TRAP-stained osteoclast number and size); format: cell-based; conditions: cultured mouse calvariae; calcitonin tested against the PTH-induced increase
From the text: To confirm the findings in the calvarial bone resorption assay employing calcium release from culture mouse calvariae, selected bones were fixed in 10% neutral buffered formalin and demineralized in 5% formic acid with 5% formalin. The bones were dehydrated through an ascending series of ethanol concentrations, infiltrated in glycol methacrylate, and embedded using a JB-4 embedding kit (PolySciences, Warrington, Pa.) (Liu and Kalu, J. Bone Miner. Res., 5:973-82, 1990). Cross sections of calvariae cut at 5 μm were obtained and stained for tartrate-resistant acid phosphatase (TRAP) activity and counterstained with methyl green and thionin for cell morphology (Liu and Kalu, J. Bone. Miner. Res. 1990, supra). Osteoclasts were identified by TRAP stain, multinucleation, large cell size, and irregular cell shape. The number of osteoclasts were counted from endocranial and ectocranial bone surfaces and expressed as number/mm perimeter. The size of all the osteoclasts counted was also measured using a Bone Morphometry program (Lui and Kalu, supra.; Bain et al., J. Done Miner. Res. 8:435-42, 1993). […] This PTH-induced increase was suppressed by treatment with human calcitonin.
Calcitonin mimetic compounds were evaluated in a similar fashion for their ability to suppress PTH-induced increases in osteoclast number and size. Cell toxicity (or death) was also evaluated morphologically. […]

[4] = biological target: hamster calcitonin receptor (Mesocricetus auratus, UniProt A0A3Q0D7K7); assay: CRE-luciferase induction in Boris/KZ10-3 cells (calcitonin receptor positive); conditions: Boris/KZ10-3 clone

## CC[C@H](C)[C@H](NC(=O)[C@H](C)NC(=O)[C@@H](NC(=O)[C@H](CCC(N)=O)NC(=O)[C@@H]1CCCN1C(=O)[C@H](Cc1ccccc1)NC(=O)[C@@H](NC(=O)[C@H](Cc1c[nH]cn1)NC(=O)[C@H](Cc1ccccc1)NC(=O)[C@H](CCCCN)NC(=O)[C@H](CC(N)=O)NC(=O)[C@H](Cc1ccccc1)NC(=O)[C@H](CC(=O)O)NC(=O)[C@H](CCC(N)=O)NC(=O)[C@@H](NC(=O)[C@H](Cc1ccc(O)cc1)NC(=O)[C@@H](NC(=O)CNC(=O)[C@H](CC(C)C)NC(=O)[C@H](CCSC)NC(=O)[C@@H]1CSSC[C@H](N)C(=O)NCC(=O)N[C@@H](CC(N)=O)C(=O)N[C@@H](CC(C)C)C(=O)N[C@@H](CO)C(=O)N[C@@H]([C@@H](C)O)C(=O)N1)[C@@H](C)O)[C@@H](C)O)[C@@H](C)O)[C@@H](C)O)C(=O)NCC(=O)N[C@H](C(=O)NCC(=O)N[C@@H](C)C(=O)N1CCC[C@H]1C(N)=O)C(C)C [human calcitonin]
[1]
  induction of luciferase: 20 fold
[2]
  induction of CRE-luciferase above basal level: fails to induce CRE-luciferase levels above the basal level of expression
[3]
  number and size of osteoclasts (histomorphometry): suppressed
[4]
  induction of luciferase: 30 fold
